Assay results published in US20230310372A1 (Amarin Pharmaceuticals Ireland Limited, priority 2013, published 2023).
Entries after “also recorded” stand apart in the source; their conditions may differ.

Experiment: Phase 1, open-label, crossover drug-drug interaction study: steady-state plasma pharmacokinetics of atorvastatin and its two active metabolites with or without ethyl eicosapentaenoate
Conditions: for AUC(0-t) / Cmax: human, plasma
Excerpt: Data for Cmax and AUC0-24 are reported as means (SD); data for Tmax are reported as median values.

CC(C)c1c(C(=O)Nc2ccccc2)c(-c2ccccc2)c(-c2ccc(F)cc2)n1CC[C@@H](O)C[C@@H](O)CC(=O)O [Atorvastatin, atorvastatin, reference compound]
Effect of co-administration of ethyl eicosapentaenoate on Tmax (atorvastatin 80 mg alone versus with 4 g ethyl eicosapentaenoate): no significant difference; also recorded: did not significantly affect
AUC(0-t) (oral, 80 mg, AUC0-24, LSGM (least squares geometric mean), A = atorvastatin (80 mg) administered alone): 170 ng·h/mL
AUC(0-t) (oral, 80 mg, AUC0-24, mean, 80 mg atorvastatin alone): 180 ng·h/mL
Cmax (oral, 80 mg, Cmax, LSGM (least squares geometric mean), A = atorvastatin (80 mg) administered alone): 49.4 ng/mL
Cmax (oral, 80 mg, Cmax, mean, 80 mg atorvastatin alone): 52.7 ng/mL
AUC(0-t) (oral, AUC0-24, LSGM (least squares geometric mean), A + EPA = atorvastatin (80 mg) co-administered with ethyl eicosapentaenoate (4 g)): 169 ng·h/mL
AUC(0-t) (oral, AUC0-24, mean, 80 mg atorvastatin co-administered with 4 g ethyl eicosapentaenoate): 184 ng·h/mL
Cmax (oral, Cmax, LSGM (least squares geometric mean), A + EPA = atorvastatin (80 mg) co-administered with ethyl eicosapentaenoate (4 g)): 53.2 ng/mL
Cmax (oral, Cmax, mean, 80 mg atorvastatin co-administered with 4 g ethyl eicosapentaenoate): 57.1 ng/mL
AUC(0-t) (po, 80 mg per day, AUC0-24 (geometric mean), healthy subjects, steady state, oral atorvastatin 80 mg per day alone (Day 7)): 170 ng·h/mL
Cmax (po, 80 mg per day, Cmax (geometric mean), healthy subjects, steady state, oral atorvastatin 80 mg per day alone (Day 7)): 49.4 ng/mL
AUC(0-t) (po, AUC0-24 (geometric mean), healthy subjects, steady state, oral atorvastatin 80 mg per day with about 4 g ethyl eicosapentaenoate (Day 35)): 169 ng·h/mL
Cmax (po, Cmax (geometric mean), healthy subjects, steady state, oral atorvastatin 80 mg per day with about 4 g ethyl eicosapentaenoate (Day 35)): 53.2 ng/mL
